In paper PMC11077377:
Results are given in words; binding and its absence hold for the method and conditions named. Binding seen in cells or lysates may run through a third protein. Some entries that bind do so weakly or less than the wild type. For some assays here: Tags and fused reporters may be left off the sequences shown.

By UniProt entry, the sequences of proteins in these tests, tags left out. Residues count along the entry.
UniProt P35968, residues 20-1356: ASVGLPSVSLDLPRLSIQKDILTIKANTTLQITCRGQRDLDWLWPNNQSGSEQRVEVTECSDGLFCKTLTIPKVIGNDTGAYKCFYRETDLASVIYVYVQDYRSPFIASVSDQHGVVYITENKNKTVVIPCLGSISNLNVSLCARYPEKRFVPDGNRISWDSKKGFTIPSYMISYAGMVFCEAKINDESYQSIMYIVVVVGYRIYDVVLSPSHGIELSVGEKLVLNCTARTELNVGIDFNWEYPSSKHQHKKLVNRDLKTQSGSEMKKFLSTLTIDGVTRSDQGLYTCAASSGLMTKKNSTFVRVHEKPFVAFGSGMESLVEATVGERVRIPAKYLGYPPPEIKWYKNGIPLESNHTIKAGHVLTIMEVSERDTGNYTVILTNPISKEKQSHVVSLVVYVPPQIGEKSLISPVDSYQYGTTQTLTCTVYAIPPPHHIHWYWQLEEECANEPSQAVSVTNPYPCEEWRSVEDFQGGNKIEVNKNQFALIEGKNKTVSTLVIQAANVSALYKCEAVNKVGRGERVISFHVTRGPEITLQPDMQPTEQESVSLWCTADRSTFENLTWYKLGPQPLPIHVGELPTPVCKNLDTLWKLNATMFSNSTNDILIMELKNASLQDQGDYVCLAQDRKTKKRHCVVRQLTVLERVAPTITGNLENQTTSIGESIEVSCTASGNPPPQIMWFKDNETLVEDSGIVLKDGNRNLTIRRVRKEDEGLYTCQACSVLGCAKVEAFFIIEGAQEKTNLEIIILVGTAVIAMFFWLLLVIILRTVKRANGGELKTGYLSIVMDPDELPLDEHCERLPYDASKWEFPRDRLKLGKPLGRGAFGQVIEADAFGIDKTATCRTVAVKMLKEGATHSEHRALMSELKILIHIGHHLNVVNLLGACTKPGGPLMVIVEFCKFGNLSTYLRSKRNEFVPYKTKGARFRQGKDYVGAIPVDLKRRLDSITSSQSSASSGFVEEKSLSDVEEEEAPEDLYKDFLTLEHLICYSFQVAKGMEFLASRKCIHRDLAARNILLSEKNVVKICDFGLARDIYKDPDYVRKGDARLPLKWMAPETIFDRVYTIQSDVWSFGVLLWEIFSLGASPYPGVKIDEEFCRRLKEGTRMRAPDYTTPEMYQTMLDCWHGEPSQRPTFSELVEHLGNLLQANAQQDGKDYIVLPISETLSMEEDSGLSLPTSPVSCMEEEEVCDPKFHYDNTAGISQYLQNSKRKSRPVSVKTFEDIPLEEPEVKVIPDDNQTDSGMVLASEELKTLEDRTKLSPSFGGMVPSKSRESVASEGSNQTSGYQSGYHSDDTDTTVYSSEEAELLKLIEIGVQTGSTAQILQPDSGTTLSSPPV

Legend:
[1] = target: T1, ECM1 fused to a fluorescent protein (GFP or RFP) for FRET-FLIM (human) (UniProt Q16610); test: FRET or BRET; FRET-FLIM; GFP-fused donor and RFP-fused acceptor transiently co-expressed in HEY and SKOV3 cells; excitation 489 nm, GFP lifetime measured
T1 sequence: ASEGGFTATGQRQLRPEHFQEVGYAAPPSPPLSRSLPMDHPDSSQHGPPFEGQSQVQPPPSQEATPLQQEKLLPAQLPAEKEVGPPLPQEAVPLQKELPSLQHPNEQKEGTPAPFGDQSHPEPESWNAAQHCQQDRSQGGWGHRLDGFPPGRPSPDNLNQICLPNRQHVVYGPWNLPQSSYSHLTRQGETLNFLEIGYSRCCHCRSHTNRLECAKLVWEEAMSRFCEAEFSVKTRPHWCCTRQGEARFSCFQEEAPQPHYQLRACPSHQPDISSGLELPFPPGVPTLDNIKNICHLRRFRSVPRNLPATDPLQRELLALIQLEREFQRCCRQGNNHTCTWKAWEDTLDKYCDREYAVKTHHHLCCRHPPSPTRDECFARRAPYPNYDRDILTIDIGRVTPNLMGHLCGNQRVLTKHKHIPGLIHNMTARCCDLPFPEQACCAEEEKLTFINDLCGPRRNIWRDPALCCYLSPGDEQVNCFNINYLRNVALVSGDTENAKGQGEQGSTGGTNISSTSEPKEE

[2] = target: T2, extracellular matrix protein 1 (ECM1) (human) (UniProt Q16610); test: co-IP; RIPA cell lysate; protein A/G beads with 25 ug IgG/ECM1/VEGFR2 antibody; lysate incubated 2 h at room temperature; SDS-PAGE and blot
T2 sequence: T1 sequence

binding [1]	binding [2]	Substance
binds	–	VEGFR2 fused to a fluorescent protein (GFP or RFP) for FRET-FLIM (from UniProt P35968 20-1356) (receptor)
–	binds	vascular endothelial growth factor receptor 2 (VEGFR2) (from UniProt P35968 20-1356)
